Source: PubChem BioAssay AID743458 (Peter MacCallum Cancer Centre, 2014)
The deposit covers about 1,800 reagents; shown is an unselected part. Over the whole deposit, 732 (41%) were called active. 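Calls are per siRNA reagent; a gene was deemed confirmed only if most of its four siRNAs scored.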 A number with no mark means an inactive call.

Assay: 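Retest earlier hits with independent siRNAs per gene for restoring vorinostat sensitivity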 (follow-up of hits)
Cell system: human HCT116-VR colon cancer cells made resistant to vorinostat
Knock-down reagent: single siRNA or pool against human genes, 25 nM per single siRNA
Time to read-out: about 72 h after transfection, including 24 h of drug
Challenge: vorinostat, 2.5 µM final, for 24 h
Read-out: 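Live-cell fluorescent viability and luminescent caspase 3/7 activity after vorinostat treatment, background subtracted, mean of duplicate plates, as fold change over mock-transfected wells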
Reading the numbers: viability relative to mock: higher = more living cells than mock; caspase activity relative to mock: higher = more apoptosis than mock
Active means: 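Active means a reduced-viability or caspase-activation class, anything else inactive; classes could only be given to wells that looked healthy when left untreated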

no.	target	PubChem SID	viability relative to mock	caspase activity relative to mock	viability hit class	caspase hit class
1	ZFP64 (ZFP64 zinc finger protein)	SID134238286	0.76 (active)	8.01	no change	caspase activation
2	ZFP64 (ZFP64 zinc finger protein)	SID134238287	0.4 (active)	0.96	reduced viability	no change
3	ZFP64 (ZFP64 zinc finger protein)	SID135612226	0.48 (active)	2.81	reduced viability	caspase activation
4	ZFP64 (ZFP64 zinc finger protein)	SID135612227	0.94	0.91	no change	no change
5	DBX1 (developing brain homeobox 1)	SID134296379	0.56 (active)	2.88	reduced viability	caspase activation
6	DBX1 (developing brain homeobox 1)	SID134296380	0.91	1.28	no change	no change
7	DBX1 (developing brain homeobox 1)	SID135617279	0.2	2.52	no change	no change
8	DBX1 (developing brain homeobox 1)	SID135617280	0.64 (active)	2.98	no change	caspase activation
9	OXTR (oxytocin receptor)	SID134234233	1.04	1.45	no change	no change
10	OXTR (oxytocin receptor)	SID134234234	0.54 (active)	5.11	reduced viability	caspase activation
11	OXTR (oxytocin receptor)	SID134234235	0.87	1.21	no change	no change
12	OXTR (oxytocin receptor)	SID152151223	1.02	1.26	no change	no change
13	GPI (glucose-6-phosphate isomerase)	SID134232389	0.94	0.76	no change	no change
14	GPI (glucose-6-phosphate isomerase)	SID134232390	0.72 (active)	3.21	no change	caspase activation
15	GPI (glucose-6-phosphate isomerase)	SID134232391	0.89	0.9	no change	no change
16	GPI (glucose-6-phosphate isomerase)	SID134232392	0.68	2.02	no change	no change
17	KIAA1191	SID134267629	0.6	2.01	no change	no change
18	KIAA1191	SID134267630	0.26	1.17	no change	no change
19	KIAA1191	SID134267631	0.76	2.38	no change	no change
20	KIAA1191	SID135614714	0.84	1.45	no change	no change
21	OR4K5 (olfactory receptor family 4 subfamily K member 5)	SID134309429	0.74	2.54	no change	no change
22	OR4K5 (olfactory receptor family 4 subfamily K member 5)	SID134309430	0.34 (active)	4.78	reduced viability	caspase activation
23	OR4K5 (olfactory receptor family 4 subfamily K member 5)	SID134309431	0.74	1.75	no change	no change
24	OR4K5 (olfactory receptor family 4 subfamily K member 5)	SID134309432	0.84	1.27	no change	no change
25	ZNF497 (zinc finger protein 497)	SID134296977	0.88 (active)	3.37	no change	caspase activation
26	ZNF497 (zinc finger protein 497)	SID134296978	0.74	2	no change	no change
27	ZNF497 (zinc finger protein 497)	SID134296979	1.11	1.7	no change	no change
28	ZNF497 (zinc finger protein 497)	SID134296980	0.3 (active)	3.03	reduced viability	caspase activation
29	TRIM51G (tripartite motif-containing 51G)	SID134296398	0.74 (active)	4.42	no change	caspase activation
30	TRIM51G (tripartite motif-containing 51G)	SID134296400	1.02	1.61	no change	no change
31	TRIM51G (tripartite motif-containing 51G)	SID135617281	0.78	1.52	no change	no change
32	TRIM51G (tripartite motif-containing 51G)	SID135617282	0.94	2.42	no change	no change
33	IFNA16 (interferon alpha 16)	SID134283441	0.9	0.83	no change	no change
34	IFNA16 (interferon alpha 16)	SID134283442	0.73	1.36	no change	no change
35	IFNA16 (interferon alpha 16)	SID134283443	0.12 (active)	4.08	reduced viability	caspase activation
36	IFNA16 (interferon alpha 16)	SID134283444	0.31 (active)	4.25	reduced viability	caspase activation

5 of these entries, set out differently:
target	PubChem SID	viability relative to mock	caspase activity relative to mock	viability hit class	caspase hit class
GPI (glucose-6-phosphate isomerase)	SID134232389	0.94	0.76	no change	no change
GPI (glucose-6-phosphate isomerase)	SID134232390	0.72 (active)	3.21	no change	caspase activation
GPI (glucose-6-phosphate isomerase)	SID134232391	0.89	0.9	no change	no change
GPI (glucose-6-phosphate isomerase)	SID134232392	0.68	2.02	no change	no change
KIAA1191	SID134267629	0.6	2.01	no change	no change

The results go on:
no.	target	PubChem SID	viability relative to mock	caspase activity relative to mock	viability hit class	caspase hit class
37	NINJ1 (ninjurin 1)	SID134276085	0.88	1.13	no change	no change
38	NINJ1 (ninjurin 1)	SID134276086	0.62 (active)	4.23	no change	caspase activation
39	NINJ1 (ninjurin 1)	SID134276087	0.88	0.84	no change	no change
40	NINJ1 (ninjurin 1)	SID134276088	0.82	1.56	no change	no change
41	NKX6-3 (NK6 homeobox 3)	SID134269485	0.84	1.32	no change	no change
42	NKX6-3 (NK6 homeobox 3)	SID134269486	0.48	4.62	no change	no change
43	NKX6-3 (NK6 homeobox 3)	SID134269487	0.75	1.94	no change	no change
44	NKX6-3 (NK6 homeobox 3)	SID134269488	0.91 (active)	2.68	no change	caspase activation
45	EIF3I (eukaryotic translation initiation factor 3 subunit I)	SID134282981	0.39 (active)	0.94	reduced viability	no change
46	EIF3I (eukaryotic translation initiation factor 3 subunit I)	SID134282982	0.48 (active)	0.65	reduced viability	no change
47	EIF3I (eukaryotic translation initiation factor 3 subunit I)	SID134282983	0.4 (active)	0.7	reduced viability	no change
48	EIF3I (eukaryotic translation initiation factor 3 subunit I)	SID135615917	0.46 (active)	0.54	reduced viability	no change
49	CD1B (CD1b molecule)	SID134282857	1.14	1.1	no change	no change
50	CD1B (CD1b molecule)	SID134282858	0.9	1.31	no change	no change
51	CD1B (CD1b molecule)	SID134282859	0.88	0.94	no change	no change
52	CD1B (CD1b molecule)	SID134282860	0.95	1.28	no change	no change
53	TOX4 (TOX high mobility group box family member 4)	SID134289078	0.84 (active)	3.99	no change	caspase activation
54	TOX4 (TOX high mobility group box family member 4)	SID134289079	1.01	1.24	no change	no change
55	TOX4 (TOX high mobility group box family member 4)	SID134289080	0.83 (active)	3.36	no change	caspase activation
56	TOX4 (TOX high mobility group box family member 4)	SID135616499	0.96	2.38	no change	no change
57	LSM14A (LSM14A mRNA processing body assembly factor)	SID134262189	0.98	2.21	no change	no change
58	LSM14A (LSM14A mRNA processing body assembly factor)	SID134262190	0.36 (active)	4.65	reduced viability	caspase activation
59	LSM14A (LSM14A mRNA processing body assembly factor)	SID134262191	0.86	0.95	no change	no change
60	LSM14A (LSM14A mRNA processing body assembly factor)	SID134262192	0.94	0.95	no change	no change
61	LSM14A (LSM14A mRNA processing body assembly factor)	SID134318116	0.81 (active)	3.84	no change	caspase activation
